For the test, the target named is T1, Flag-NPHP5 (nephrocystin-5), full length 1-598 (UniProt Q15051).
T1 sequence: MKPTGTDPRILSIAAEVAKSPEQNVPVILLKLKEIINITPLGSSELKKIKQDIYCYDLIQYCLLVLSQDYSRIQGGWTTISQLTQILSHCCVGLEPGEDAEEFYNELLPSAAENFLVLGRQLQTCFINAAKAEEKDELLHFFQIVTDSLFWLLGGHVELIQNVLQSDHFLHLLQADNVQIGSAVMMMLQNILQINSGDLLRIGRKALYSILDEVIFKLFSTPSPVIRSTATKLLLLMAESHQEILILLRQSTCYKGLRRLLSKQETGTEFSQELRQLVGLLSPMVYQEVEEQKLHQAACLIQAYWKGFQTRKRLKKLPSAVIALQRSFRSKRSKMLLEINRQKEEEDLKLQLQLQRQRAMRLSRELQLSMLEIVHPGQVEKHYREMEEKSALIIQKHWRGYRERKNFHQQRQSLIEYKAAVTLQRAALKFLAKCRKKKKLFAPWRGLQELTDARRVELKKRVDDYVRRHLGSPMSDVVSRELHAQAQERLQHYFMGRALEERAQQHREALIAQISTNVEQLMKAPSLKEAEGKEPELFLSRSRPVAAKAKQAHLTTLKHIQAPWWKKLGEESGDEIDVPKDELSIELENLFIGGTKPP
Kind of test: affinity purification with mass spectrometry; Flag-NPHP5 complexes from HEK293 lysate (50 mM HEPES pH 7.4, 250 mM NaCl, 5 mM EDTA, 0.1% NP-40) on anti-Flag agarose, 2 h at 4°C, eluted with Flag peptide, gel slices analysed by LC-MS/MS.

Chains of the proteins cited; added tags and fusions are not shown.
UniProt Q93008: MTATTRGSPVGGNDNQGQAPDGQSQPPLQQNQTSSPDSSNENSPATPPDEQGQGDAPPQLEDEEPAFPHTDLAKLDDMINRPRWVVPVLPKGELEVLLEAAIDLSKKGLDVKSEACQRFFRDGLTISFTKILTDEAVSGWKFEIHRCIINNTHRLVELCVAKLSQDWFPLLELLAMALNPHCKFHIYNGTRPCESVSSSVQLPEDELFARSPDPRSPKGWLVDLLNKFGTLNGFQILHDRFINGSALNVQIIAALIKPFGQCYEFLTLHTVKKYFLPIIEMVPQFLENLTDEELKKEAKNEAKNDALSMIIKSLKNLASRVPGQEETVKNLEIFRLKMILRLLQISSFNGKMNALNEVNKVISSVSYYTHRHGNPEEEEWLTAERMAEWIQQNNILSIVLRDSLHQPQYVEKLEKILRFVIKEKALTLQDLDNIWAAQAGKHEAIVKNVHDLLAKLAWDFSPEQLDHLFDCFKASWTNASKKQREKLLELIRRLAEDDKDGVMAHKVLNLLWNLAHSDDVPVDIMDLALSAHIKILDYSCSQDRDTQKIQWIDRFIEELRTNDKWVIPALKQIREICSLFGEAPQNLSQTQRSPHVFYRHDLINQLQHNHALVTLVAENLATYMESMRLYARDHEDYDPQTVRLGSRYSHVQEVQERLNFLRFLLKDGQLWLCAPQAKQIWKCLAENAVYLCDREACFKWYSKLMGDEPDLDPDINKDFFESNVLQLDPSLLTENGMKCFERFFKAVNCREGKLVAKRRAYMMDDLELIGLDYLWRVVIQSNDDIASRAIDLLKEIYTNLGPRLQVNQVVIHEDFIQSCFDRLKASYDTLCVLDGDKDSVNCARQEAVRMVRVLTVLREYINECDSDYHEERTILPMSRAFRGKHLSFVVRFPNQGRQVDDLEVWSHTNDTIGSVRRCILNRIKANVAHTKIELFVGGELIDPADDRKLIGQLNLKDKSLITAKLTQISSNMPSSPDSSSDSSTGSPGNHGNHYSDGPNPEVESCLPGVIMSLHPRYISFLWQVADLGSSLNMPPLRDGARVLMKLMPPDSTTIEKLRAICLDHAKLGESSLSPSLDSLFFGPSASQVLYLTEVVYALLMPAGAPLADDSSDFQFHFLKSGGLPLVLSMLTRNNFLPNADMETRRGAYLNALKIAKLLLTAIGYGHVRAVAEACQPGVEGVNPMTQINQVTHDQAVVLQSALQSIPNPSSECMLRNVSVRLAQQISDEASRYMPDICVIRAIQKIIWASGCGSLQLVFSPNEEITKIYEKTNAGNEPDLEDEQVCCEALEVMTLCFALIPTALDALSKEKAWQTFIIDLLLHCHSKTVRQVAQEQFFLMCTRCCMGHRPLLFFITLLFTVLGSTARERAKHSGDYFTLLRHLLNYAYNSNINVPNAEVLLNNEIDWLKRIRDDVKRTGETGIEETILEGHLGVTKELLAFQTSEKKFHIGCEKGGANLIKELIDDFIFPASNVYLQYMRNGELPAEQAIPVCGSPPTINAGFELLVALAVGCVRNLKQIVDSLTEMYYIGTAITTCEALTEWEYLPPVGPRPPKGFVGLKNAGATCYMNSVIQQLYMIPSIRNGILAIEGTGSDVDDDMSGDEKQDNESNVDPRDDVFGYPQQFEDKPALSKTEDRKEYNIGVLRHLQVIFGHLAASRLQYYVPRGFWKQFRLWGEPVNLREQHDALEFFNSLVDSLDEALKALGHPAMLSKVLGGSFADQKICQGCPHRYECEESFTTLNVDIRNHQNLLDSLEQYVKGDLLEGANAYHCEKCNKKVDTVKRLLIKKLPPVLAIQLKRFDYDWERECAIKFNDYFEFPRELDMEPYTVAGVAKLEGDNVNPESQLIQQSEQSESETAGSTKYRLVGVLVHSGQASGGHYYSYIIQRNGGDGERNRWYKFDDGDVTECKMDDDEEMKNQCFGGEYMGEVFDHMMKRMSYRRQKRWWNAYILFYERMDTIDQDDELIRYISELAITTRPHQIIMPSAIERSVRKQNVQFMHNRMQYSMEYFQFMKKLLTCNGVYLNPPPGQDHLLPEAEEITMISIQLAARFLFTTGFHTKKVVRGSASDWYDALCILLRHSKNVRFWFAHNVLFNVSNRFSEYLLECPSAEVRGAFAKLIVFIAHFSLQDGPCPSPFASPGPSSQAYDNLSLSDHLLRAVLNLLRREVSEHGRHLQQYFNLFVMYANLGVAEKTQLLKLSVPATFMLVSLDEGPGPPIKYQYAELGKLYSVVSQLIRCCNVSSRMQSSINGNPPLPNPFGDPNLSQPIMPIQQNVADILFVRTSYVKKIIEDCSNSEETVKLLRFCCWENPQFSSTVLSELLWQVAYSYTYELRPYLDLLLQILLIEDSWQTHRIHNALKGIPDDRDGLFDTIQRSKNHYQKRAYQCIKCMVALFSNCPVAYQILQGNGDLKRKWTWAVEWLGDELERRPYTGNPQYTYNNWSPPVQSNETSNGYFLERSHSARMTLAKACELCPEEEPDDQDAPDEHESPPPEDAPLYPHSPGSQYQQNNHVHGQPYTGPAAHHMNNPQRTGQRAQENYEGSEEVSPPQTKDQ

These are yes or no findings as the source states them, for the method shown. In cells and extracts the contact can be indirect. A yes stands for co-enrichment or nearness to the bait. Other partners may have been found. Where a sequence is shown, tags or fusion partners need not be part of it.

As to “USP9X/FAM, endogenous (from UniProt Q93008 1-2554) (enzyme)”, the binding entry is reported as “binds”.

The values are drawn from paper PMC5446187, “USP9X counteracts differential ubiquitination of NPHP5 by MARCH7 and BBS11 to regulate ciliogenesis” (PLoS Genetics, 2017).
